The target in assay [1] is T1, synthetic biotin-labeled peptide representing the N-terminal cytoplasmic domain (aa 2-23) of human NEP, non-phosphorylated (human) (UniProt P08473).
T1 sequence (peptide, biotin on a C-terminal lysine): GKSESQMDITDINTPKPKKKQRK
In words: pull-down; biotin-labeled NEP NT peptides coupled to Streptavidin-agarose beads, incubated with GST PTEN-CT (2 µM), MBP Ezrin-NT (100 nM) or CK2 (30 nM) in 10 mM Tris/HCl pH 7.4, 150 mM NaCl, 0.4% Igepal for 2 hrs; bound proteins detected by Western immunoblotting; both purified. (In general: A western blot detects proteins with antibodies after separation by electrophoresis.)

By UniProt entry, the sequences of proteins in these tests, tags left out. Where a name states a change or a piece, a line headed by the entry shows the natural chain unless it says otherwise. Residues count along the entry.
UniProt P68400: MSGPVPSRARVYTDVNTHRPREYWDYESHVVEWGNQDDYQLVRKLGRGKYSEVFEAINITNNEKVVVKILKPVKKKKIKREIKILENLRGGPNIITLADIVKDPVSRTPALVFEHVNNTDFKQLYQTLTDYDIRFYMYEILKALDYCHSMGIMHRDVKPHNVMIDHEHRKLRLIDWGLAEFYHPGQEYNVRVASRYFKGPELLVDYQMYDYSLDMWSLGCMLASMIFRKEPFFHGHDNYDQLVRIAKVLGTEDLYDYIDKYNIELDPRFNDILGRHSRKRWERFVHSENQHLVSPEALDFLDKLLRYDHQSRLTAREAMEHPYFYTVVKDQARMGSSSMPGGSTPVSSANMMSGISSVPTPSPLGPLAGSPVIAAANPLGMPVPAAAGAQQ
UniProt P15311, residues 1-310: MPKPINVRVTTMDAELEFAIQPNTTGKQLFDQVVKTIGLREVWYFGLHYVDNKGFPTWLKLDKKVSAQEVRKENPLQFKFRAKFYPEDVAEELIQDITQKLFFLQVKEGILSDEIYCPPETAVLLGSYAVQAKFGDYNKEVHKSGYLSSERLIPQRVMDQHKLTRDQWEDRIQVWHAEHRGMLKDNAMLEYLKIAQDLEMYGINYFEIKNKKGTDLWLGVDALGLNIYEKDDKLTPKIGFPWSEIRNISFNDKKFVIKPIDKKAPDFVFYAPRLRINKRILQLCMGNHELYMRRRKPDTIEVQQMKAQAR

Assay [2] addresses T2, synthetic biotin-labeled peptide representing the N-terminal cytoplasmic domain (aa 2-23) of human NEP with serine 6 phosphorylated (human) (UniProt P08473).
T2 sequence (peptide, phosphoserine at 6; biotin on a C-terminal lysine): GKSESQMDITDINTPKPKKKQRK
The description is as above.

No constants are given. Whether binding was seen depends on the method and setting. Some results given as binding are weak or reduced against the parent protein; the word gives no strength.

With “recombinant protein kinase CK2 (alpha and beta subunit; New England Biolabs) (from UniProt P68400 1-391; P67870 1-215) (complex)”, in assay [1], the binding result is listed as “binds”.
Take “fusion protein of the maltose binding protein (MBP) and the N-terminus of Ezrin (amino acids 1-310) (from UniProt P15311 1-310) (domain or fragment)”: in assay [2], the binding result is listed as “binds”.

(Values after PMC2948513 (PLoS ONE, 2010).)
